These are yes or no findings as the source states them, for the method shown. Binding seen in cells or lysates may run through a third protein. Some binding calls cover weakened binding; strength is not graded here.
How the values were obtained:
Assay in all cases: co-IP
[1] = target: Forkhead box P3 (FOXP3) (human (endogenous in iTreg cells)) (UniProt Q9BZS1)
[2] = target: IKZF3 (human (endogenous in iTreg cells)) (UniProt Q9UKT9)
[3] = target: Runt-related transcription factor 1 (RUNX1) (human (endogenous in iTreg cells)) (UniProt Q01196)

Chains of the proteins cited; added tags and fusions are not shown. Residues count along the entry.
UniProt Q9BZS1, residues 1-417: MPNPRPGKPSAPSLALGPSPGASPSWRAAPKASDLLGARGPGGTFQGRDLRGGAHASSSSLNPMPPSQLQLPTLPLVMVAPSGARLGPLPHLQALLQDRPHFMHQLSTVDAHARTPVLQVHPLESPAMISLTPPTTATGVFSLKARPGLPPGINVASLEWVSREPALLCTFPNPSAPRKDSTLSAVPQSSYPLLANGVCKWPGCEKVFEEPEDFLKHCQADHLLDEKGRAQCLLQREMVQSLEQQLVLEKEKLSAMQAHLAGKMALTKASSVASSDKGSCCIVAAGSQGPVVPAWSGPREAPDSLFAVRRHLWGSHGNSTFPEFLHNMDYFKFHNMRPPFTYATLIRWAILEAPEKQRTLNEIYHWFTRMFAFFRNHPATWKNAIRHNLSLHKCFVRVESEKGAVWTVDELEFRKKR
UniProt Q9UKT9: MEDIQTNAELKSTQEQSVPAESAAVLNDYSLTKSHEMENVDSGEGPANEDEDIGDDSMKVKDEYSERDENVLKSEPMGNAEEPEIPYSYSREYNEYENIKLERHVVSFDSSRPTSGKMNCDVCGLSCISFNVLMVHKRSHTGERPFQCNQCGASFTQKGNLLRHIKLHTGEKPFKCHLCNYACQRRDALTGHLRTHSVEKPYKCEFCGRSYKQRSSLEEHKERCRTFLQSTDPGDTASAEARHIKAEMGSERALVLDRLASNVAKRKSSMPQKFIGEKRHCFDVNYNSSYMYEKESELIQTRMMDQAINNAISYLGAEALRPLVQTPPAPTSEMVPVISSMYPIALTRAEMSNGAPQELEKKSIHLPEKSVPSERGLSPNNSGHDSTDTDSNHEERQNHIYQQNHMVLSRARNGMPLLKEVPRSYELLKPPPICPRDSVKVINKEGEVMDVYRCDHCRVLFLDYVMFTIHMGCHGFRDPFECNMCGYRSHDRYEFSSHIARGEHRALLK
UniProt Q01196: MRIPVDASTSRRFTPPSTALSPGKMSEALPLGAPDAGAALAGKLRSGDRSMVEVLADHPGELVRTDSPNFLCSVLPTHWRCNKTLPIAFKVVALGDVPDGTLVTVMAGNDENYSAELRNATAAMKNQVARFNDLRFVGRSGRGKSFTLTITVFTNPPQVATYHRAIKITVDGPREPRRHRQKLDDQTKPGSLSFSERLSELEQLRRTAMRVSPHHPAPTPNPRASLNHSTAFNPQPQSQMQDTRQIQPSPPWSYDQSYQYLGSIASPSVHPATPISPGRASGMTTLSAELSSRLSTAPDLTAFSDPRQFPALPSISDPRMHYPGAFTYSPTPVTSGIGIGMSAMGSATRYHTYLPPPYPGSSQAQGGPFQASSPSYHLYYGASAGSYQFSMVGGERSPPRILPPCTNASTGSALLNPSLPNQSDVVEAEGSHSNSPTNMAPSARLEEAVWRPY

binding [1]: binds | binding [2]: binds | binding [3]: binds
B1: hypermethylated in cancer 1 (HIC1) (protein, UniProt Q14526 1-733)
chain: MTFPEADILLKSGECAGQTMLDTMEAPGHSRQLLLQLNNQRTKGFLCDVIIVVQNALFRAHKNVLAASSAYLKSLVVHDNLLNLDHDMVSPAVFRLVLDFIYTGRLADGAEAAAAAAVAPGAEPSLGAVLAAASYLQIPDLVALCKKRLKRHGKYCHLRGGGGGGGGYAPYGRPGRGLRAATPVIQACYPSPVGPPPPPAAEPPSGPEAAVNTHCAELYASGPGPAAALCASERRCSPLCGLDLSKKSPPGSAAPERPLAERELPPRPDSPPSAGPAAYKEPPLALPSLPPLPFQKLEEAAPPSDPFRGGSGSPGPEPPGRPDGPSLLYRWMKHEPGLGSYGDELGRERGSPSERCEERGGDAAVSPGGPPLGLAPPPRYPGSLDGPGAGGDGDDYKSSSEETGSSEDPSPPGGHLEGYPCPHLAYGEPESFGDNLYVCIPCGKGFPSSEQLNAHVEAHVEEEEALYGRAEAAEVAAGAAGLGPPFGGGGDKVAGAPGGLGELLRPYRCASCDKSYKDPATLRQHEKTHWLTRPYPCTICGKKFTQRGTMTRHMRSHLGLKPFACDACGMRFTRQYRLTEHMRIHSGEKPYECQVCGGKFAQQRNLISHMKMHAVGGAAGAAGALAGLGGLPGVPGPDGKGKLDFPEGVFAVARLTAEQLSLKQQDKAAAAELLAQTTHFLHDPKVALESLYPLAKFTAELGLSPDKAAEVLSQGAHLAAGPDGRTIDRFSPT
